Laboratory results as given in publication PMC7578860.
These are yes or no findings as the source states them, for the method shown. Binding seen in cells or lysates may run through a third protein. A result given as binding can be weak or reduced; the word gives no strength. Tags and fused reporters may be left off the sequences shown.

Target: P/G rich domain of KSRP (Flag‐tagged KSRP deletion mutant) (human)
Assay: co-IP; HEK293T cells cotransfected with a full-length partner and tagged deletion mutants or segments of the other (Figure 4E, 4F); antibodies to Myc and Flag; western blot

binding: binds
B1: Myc‐tagged full‐length FBXW2 (in HEK293T cells) (protein, UniProt Q9UKT8 1-454)
chain: MERKDFETWLDNISVTFLSLTDLQKNETLDHLISLSGAVQLRHLSNNLETLLKRDFLKLLPLELSFYLLKWLDPQTLLTCCLVSKQWNKVISACTEVWQTACKNLGWQIDDSVQDALHWKKVYLKAILRMKQLEDHEAFETSSLIGHSARVYALYYKDGLLCTGSDDLSAKLWDVSTGQCVYGIQTHTCAAVKFDEQKLVTGSFDNTVACWEWSSGARTQHFRGHTGAVFSVDYNDELDILVSGSADFTVKVWALSAGTCLNTLTGHTEWVTKVVLQKCKVKSLLHSPGDYILLSADKYEIKIWPIGREINCKCLKTLSVSEDRSICLQPRLHFDGKYIVCSSALGLYQWDFASYDILRVIKTPEIANLALLGFGDIFALLFDNRYLYIMDLRTESLISRWPLPEYRKSKRGSSFLAGEASWLNGLDGHNDTGLVFATSMPDHSIHLVLWKEHG
